Assay results as given in doi:10.1101/2020.05.20.107144.
Results are given in words; binding and its absence hold for the method and conditions named. Some results given as binding are weak or reduced against the parent protein; the word gives no strength.

The chains behind the UniProt entries cited, without tags or fusion partners.
UniProt Q15477, whole entry: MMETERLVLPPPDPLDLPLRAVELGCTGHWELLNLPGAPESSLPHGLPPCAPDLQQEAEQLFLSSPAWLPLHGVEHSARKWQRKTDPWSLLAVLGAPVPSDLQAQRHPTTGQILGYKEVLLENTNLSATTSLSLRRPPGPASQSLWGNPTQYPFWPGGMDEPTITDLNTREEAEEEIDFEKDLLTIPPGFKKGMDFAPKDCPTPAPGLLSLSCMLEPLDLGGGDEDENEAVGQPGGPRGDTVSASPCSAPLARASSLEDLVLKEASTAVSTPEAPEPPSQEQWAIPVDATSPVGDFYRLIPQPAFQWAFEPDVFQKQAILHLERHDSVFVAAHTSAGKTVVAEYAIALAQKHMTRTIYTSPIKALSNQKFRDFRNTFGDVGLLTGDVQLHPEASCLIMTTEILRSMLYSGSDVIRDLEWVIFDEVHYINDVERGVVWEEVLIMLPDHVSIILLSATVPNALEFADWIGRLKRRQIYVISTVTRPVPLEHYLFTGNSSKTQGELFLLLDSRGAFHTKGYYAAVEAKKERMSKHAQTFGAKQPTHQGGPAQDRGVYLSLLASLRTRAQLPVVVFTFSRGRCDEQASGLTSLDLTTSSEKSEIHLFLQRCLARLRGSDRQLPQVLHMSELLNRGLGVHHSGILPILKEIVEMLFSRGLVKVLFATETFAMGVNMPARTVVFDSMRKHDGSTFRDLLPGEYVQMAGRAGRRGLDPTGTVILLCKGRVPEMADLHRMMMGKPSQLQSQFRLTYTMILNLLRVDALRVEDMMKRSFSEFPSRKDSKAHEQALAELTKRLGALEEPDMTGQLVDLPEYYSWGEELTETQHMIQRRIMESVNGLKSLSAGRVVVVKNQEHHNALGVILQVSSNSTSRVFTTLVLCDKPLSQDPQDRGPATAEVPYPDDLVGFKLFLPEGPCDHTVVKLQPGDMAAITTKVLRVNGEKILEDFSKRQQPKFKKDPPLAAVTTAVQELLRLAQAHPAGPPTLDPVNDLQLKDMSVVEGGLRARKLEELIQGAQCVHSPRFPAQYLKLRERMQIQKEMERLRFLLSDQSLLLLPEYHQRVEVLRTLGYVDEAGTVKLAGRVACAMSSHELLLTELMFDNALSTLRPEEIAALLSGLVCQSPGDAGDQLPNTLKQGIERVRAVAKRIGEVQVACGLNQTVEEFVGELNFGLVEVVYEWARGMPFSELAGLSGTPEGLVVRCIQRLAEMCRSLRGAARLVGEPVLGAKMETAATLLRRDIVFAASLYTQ
UniProt Q6PGP7, whole entry: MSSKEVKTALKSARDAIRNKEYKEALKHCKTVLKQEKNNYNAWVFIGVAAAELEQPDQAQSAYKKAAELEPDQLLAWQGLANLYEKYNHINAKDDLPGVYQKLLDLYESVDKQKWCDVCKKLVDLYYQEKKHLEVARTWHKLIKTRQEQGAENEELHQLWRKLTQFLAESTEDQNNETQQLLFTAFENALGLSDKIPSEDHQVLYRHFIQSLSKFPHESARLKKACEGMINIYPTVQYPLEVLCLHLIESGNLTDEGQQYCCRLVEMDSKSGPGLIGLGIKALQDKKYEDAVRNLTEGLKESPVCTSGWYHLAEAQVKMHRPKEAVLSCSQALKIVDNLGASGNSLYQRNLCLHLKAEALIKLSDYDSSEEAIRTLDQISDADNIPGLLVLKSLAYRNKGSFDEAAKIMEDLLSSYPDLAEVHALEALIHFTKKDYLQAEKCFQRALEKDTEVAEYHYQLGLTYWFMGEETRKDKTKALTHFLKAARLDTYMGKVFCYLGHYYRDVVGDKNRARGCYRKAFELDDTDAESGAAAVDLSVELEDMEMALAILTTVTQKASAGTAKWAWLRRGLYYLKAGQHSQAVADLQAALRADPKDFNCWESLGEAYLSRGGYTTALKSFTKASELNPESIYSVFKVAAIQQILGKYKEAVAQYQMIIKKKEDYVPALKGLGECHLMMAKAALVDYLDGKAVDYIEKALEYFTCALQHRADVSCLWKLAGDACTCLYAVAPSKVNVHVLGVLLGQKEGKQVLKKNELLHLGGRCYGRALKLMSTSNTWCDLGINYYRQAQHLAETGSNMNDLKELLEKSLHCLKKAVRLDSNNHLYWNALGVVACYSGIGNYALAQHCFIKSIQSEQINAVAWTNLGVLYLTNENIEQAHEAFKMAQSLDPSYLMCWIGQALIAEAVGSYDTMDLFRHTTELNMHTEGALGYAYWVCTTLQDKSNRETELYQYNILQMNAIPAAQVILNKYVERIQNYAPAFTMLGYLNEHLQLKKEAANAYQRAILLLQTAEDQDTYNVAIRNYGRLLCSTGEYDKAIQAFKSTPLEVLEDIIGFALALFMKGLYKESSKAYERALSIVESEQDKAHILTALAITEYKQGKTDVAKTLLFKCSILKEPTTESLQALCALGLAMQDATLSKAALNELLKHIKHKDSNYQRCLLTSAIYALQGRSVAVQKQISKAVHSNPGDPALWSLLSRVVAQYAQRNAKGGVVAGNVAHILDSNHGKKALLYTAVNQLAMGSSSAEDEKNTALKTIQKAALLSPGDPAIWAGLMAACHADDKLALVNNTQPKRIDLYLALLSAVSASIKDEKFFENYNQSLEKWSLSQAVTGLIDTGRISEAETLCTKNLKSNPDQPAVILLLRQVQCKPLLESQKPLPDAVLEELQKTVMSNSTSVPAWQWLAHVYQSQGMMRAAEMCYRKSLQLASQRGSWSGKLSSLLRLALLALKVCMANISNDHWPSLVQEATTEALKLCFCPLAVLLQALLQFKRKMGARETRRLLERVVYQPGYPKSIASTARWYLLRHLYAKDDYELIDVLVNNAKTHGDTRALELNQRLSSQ

Biological target: SKIV2L, N-terminus MBP-tagged (subunit of the human SKI complex, hSKI) (human) (UniProt Q15477)
Experiment: co-purification

binding: binds
Substance: TTC37, N-terminus His-Flag tagged (subunit of the human SKI complex, hSKI) (from UniProt Q6PGP7 1-1564)
